Measured values: publication PMC9894195
Results are given in words; binding and its absence hold for the method and conditions named. For some of these results: In cells and extracts the contact can be indirect. Some entries that bind do so weakly or less than the wild type.

Chains of the proteins cited; added tags and fusions are not shown. Lines headed by an entry give the natural chain unless they say otherwise; changes in a name come on top. Residues count along the entry.
UniProt P06332, residues 27-457: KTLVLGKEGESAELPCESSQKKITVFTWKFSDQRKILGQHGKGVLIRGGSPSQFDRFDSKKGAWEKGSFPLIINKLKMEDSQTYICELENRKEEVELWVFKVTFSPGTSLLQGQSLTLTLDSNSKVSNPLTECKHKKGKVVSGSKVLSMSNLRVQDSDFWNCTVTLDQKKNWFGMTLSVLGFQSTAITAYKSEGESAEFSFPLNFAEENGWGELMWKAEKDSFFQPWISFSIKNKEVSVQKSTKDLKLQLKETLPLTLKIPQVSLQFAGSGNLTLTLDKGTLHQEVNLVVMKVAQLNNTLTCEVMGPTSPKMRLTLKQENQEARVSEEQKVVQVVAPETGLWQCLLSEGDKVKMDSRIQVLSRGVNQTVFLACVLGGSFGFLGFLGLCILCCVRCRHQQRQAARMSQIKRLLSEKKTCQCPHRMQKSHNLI
UniProt P06239: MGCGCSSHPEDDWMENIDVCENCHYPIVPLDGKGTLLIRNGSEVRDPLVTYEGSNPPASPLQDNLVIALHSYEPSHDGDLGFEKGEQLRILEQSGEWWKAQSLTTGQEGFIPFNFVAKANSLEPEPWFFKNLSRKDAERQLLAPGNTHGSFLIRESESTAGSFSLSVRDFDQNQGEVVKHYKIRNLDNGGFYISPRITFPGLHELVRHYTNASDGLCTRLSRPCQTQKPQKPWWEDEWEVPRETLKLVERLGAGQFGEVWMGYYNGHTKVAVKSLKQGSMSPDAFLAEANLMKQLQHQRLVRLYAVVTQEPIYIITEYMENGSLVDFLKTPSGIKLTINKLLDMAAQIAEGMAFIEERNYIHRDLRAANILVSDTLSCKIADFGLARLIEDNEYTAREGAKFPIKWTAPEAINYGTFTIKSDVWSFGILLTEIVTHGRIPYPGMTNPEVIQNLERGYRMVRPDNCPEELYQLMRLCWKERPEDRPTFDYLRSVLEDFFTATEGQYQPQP
UniProt P06240: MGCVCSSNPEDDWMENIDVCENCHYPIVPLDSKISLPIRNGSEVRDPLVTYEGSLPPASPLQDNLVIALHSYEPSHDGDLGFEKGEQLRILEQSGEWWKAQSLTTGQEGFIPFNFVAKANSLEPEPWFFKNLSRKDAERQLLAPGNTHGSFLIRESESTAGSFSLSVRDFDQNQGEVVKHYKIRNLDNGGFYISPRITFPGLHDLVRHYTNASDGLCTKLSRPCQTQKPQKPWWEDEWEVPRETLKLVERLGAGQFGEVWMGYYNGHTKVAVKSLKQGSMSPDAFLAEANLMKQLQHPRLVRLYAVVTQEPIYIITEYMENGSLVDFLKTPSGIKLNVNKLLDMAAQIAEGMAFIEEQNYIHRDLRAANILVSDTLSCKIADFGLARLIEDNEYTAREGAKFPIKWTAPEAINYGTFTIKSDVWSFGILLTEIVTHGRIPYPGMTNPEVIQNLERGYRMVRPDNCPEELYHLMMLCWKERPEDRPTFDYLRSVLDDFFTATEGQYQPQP

Assays:
[1] = target: murine CD4 expressed in Jurkat T cells (mouse) (UniProt P06332); test: co-IP; flow cytometric co-IP (FC-IP) from lysates of Jurkat T cells (endogenous CD4/Lck ablated) transduced with mCD4 and mLck or mLck^CS; 10^7 cells; with or without EDTA or TPEN
[2] = target: mouse CD4 (endogenous, thymocytes) (mouse (endogenous in C57Bl/6 thymocytes)) (UniProt P06332); test: co-IP; flow cytometric co-IP (FC-IP): 10^7 thymocytes lysed at 4 °C for 30 min, lysate incubated with beads carrying anti-mCD4 (RM4-4) or anti-mCD8β (53-5.8), beads stained for Lck and coreceptor, occupancy = background-subtracted Lck/coreceptor fluorescence ratio; with or without 5 mM EDTA in lysis buffer or 5 mM TPEN pretreatment of cells
[3] = target: human clasp-deficient Lck (C20S, C23S) with fluorescent protein tag (HEK293T) (human) (UniProt P06239); test: scanning fluorescence cross-correlation spectroscopy (sFCCS); live HEK293T cells on glass coverslips coexpressing mCherry2- and mEGFP-tagged proteins, one coreceptor; line scans at the basal cell surface; cross-correlation quotient q normalised to the tandem control (100%) and Lck^CS/Lck^CS (0%)

binding [1] | Substance | further results
binds | murine Lck expressed in Jurkat T cells (from UniProt P06240 1-509) (enzyme) | –
no binding | murine clasp-deficient Lck (C20S, C23S) expressed in Jurkat T cells (from UniProt P06240 1-509) (enzyme) | –
– | mouse Lck (endogenous, thymocytes) (from UniProt P06240 1-509) (enzyme) | binding [2]: binds
– | human clasp-deficient Lck (C20S, C23S) with fluorescent protein tag (HEK293T) (from UniProt P06239 1-509) (enzyme) | binding [3]: no binding
